From PMC11260364
No constants are given. Whether binding was seen depends on the method and setting. Binding seen in cells or lysates may run through a third protein. Some entries that bind do so weakly or less than the wild type. For some assays here: Where a sequence is shown, tags or fusion partners need not be part of it.

Key:
Ephrin-B1 = biological target: T1, Ephrin-B1 (UniProt P98172); assay: co-IP; co-immunoprecipitation of ZIP4 and Ephrin-B1 (Fig. 1C); cells, antibodies and conditions not told in the text shown
T1 sequence: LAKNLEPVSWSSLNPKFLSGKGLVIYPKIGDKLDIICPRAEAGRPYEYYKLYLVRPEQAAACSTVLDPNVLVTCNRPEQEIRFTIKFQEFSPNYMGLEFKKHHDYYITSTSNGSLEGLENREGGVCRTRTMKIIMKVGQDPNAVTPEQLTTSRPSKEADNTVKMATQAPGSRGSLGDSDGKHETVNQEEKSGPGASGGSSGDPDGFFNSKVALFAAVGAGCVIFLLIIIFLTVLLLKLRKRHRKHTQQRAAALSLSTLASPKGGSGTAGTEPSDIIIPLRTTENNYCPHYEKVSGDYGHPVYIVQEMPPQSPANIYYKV

WT-Eprhin-B1 (wild type) = biological target: T2, WT-Eprhin-B1 (wild type) (UniProt P98172); assay: co-IP; HEK293T cells co-transfected with Flag-tagged ZIP4 and WT or deletion mutants of Ephrin-B1; lysates immunoprecipitated with HA antibody; immunoblotted with HA or Flag antibodies
T2 sequence: T1 sequence

B1: Zrt-/Irt-like protein 4 (ZIP4) (protein, UniProt Q6P5W5 23-647)
chain: SPPAGLLSLLTSGQGALDQEALGGLLNTLADRVHCANGPCGKCLSVEDALGLGEPEGSGLPPGPVLEARYVARLSAAAVLYLSNPEGTCEDARAGLWASHADHLLALLESPKALTPGLSWLLQRMQARAAGQTPKMACVDIPQLLEEAVGAGAPGSAGGVLAALLDHVRSGSCFHALPSPQYFVDFVFQQHSSEVPMTLAELSALMQRLGVGREAHSDHSHRHRGASSRDPVPLISSSNSSSVWDTVCLSARDVMAAYGLSEQAGVTPEAWAQLSPALLQQQLSGACTSQSRPPVQDQLSQSERYLYGSLATLLICLCAVFGLLLLTCTGCRGVTHYILQTFLSLAVGAVTGDAVLHLTPKVLGLHTHSEEGLSPQPTWRLLAMLAGLYAFFLFENLFNLLLPRDPEDLEDGPCGHSSHSHGGHSHGVSLQLAPSELRQPKPPHEGSRADLVAEESPELLNPEPRRLSPELRLLPYMITLGDAVHNFADGLAVGAAFASSWKTGLATSLAVFCHELPHELGDFAALLHAGLSVRQALLLNLASALTAFAGLYVALAVGVSEESEAWILAVATGLFLYVALCDMLPAMLKVRDPRPWLLFLLHNVGLLGGWTVLLLLSLYEDDITF
**Q.** With B1 as the binder, how does the binding (Ephrin-B1) read?
**A.** Its binding is “binds”.

B2: Flag-tagged ZIP4 (SLC39A4) (protein, UniProt Q6P5W5 23-647)
chain: B1 chain
**Q.** How did the binding (WT-Eprhin-B1 (wild type)) turn out when B2 was run?
**A.** The binding was “binds”.
